Measured values reported in paper PMC6223132 (Journal of controlled release : official journal of the …, 2018).

Test: In vivo pharmacokinetics and biodistribution of drugamer-released ciprofloxacin
Conditions: lung; single intratracheal dose, 20 mg/kg ciprofloxacin equivalent

O=C(O)c1cn(C2CC2)c2cc(N3CCNCC3)c(F)cc2c1=O [free ciprofloxacin, ciprofloxacin]
AUC0-24: 38 µg·h/g
